According to the supplement of paper PMC3334620:
In all, about 33,000 sequences were measured (“E-score (-0.5 to 0.5)”: median about -0.0034, highest 2% from about 0.25 on). This is one part of the list.

Each sequence was assayed against T1, Yap3 (UniProt P38749) (assay: PBM E-score (8-mer binding enrichment) (E-score (-0.5 to 0.5)); higher = stronger / more preferred TF binding). Settings: protein concentration: 100 nM; construct: GST-full length.
T1 sequence: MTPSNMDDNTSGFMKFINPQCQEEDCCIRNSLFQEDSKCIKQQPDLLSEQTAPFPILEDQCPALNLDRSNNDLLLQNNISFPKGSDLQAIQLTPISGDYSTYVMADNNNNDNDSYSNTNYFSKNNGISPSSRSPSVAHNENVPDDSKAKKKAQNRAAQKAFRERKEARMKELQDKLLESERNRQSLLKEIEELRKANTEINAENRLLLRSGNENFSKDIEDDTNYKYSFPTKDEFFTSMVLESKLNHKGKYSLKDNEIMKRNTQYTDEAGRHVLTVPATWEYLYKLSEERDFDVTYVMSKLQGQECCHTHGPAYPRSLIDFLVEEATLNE
How it was run: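 Universal all-10-mer Agilent arrays, fresh or stripped once, were converted to double-stranded form by primer extension. GST-tagged yeast transcription factors from PURExpress in vitro transcription/translation, full-length or DNA-binding domain only, were applied at about 100-200 nM and detected with fluorescent anti-GST. After masliner normalisation, the Universal PBM Analysis Suite scored each ungapped eight-base word together with its reverse complement by E-score.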
For CGAGACAG, the “PBM E-score” value was 0.0404.
For ACGTTGTC, the “PBM E-score” value was -0.014.
With ATGAGTAG the “PBM E-score” value was 0.195.
With AAGCACGC the “PBM E-score” value was -0.0279.
With GAAAGTTA the “PBM E-score” value was 0.124.
For AATAAACT, the “PBM E-score” value was 0.0576.
In the case of GCCCTAGA, the “PBM E-score” value is reported as -0.25.
With CATGAGCG the “PBM E-score” value was 0.0727.
GACCTATC was tested, and the “PBM E-score” value was -0.039.
For TCCTACAA, the “PBM E-score” value was 0.0495.
In the case of AGTCGCAG, the “PBM E-score” value is reported as -0.0563.
For TGCCCACA, the “PBM E-score” value was -0.204.
For GGCCACTA, the “PBM E-score” value was -0.0853.
For CAACCCAA, the “PBM E-score” value was -0.0163.
With GCCCCGTA the “PBM E-score” value was -0.189.
For ACCAGGCT, the “PBM E-score” value was -0.128.
For GGTTGGAA, the “PBM E-score” value was -0.058.
ATGCACGC was tested, and the “PBM E-score” value was -0.0147.
CGTACAAC was tested, and the “PBM E-score” value was 0.0189.
ACATTTCG was tested, and the “PBM E-score” value was 0.0557.
GTCCTGCA was tested, and the “PBM E-score” value was -0.215.
ATGGTCCG was tested, and the “PBM E-score” value was 0.0335.
CCCCCCGA was tested, and the “PBM E-score” value was -0.369.
CGGTGTTA was tested, and the “PBM E-score” value was 0.015.
For ATGCGGGC, the “PBM E-score” value was 0.00517.
ACATCAGT was tested, and the “PBM E-score” value was 0.105.
In the case of CAAGAAAC, the “PBM E-score” value is reported as 0.197.
For AAAACGCT, the “PBM E-score” value was -0.112.
With AGGAATTC the “PBM E-score” value was -0.0343.
With CAACTATA the “PBM E-score” value was 0.0103.
ACCGTCCA was tested, and the “PBM E-score” value was -0.0152.
ACGGGGTG was tested, and the “PBM E-score” value was -0.00572.
For CCTTCACC, the “PBM E-score” value was -0.104.
In the case of AGATTGGG, the “PBM E-score” value is reported as 0.101.
TGAATTAA was tested, and the “PBM E-score” value was 0.234.
ACGTCAAT was tested, and the “PBM E-score” value was 0.0771.
With AAAATTTC the “PBM E-score” value was -0.00715.
CAACGGTG was tested, and the “PBM E-score” value was -0.243.
With ATGCAGCA the “PBM E-score” value was 0.0337.
In the case of CACCGCGA, the “PBM E-score” value is reported as -0.00404.
In the case of ATTACCCA, the “PBM E-score” value is reported as 0.233.
With CGATTTAC the “PBM E-score” value was 0.0559.
With AATGTTTA the “PBM E-score” value was 0.013.
In the case of TCTTATCA, the “PBM E-score” value is reported as 0.126.
With GATCGCCC the “PBM E-score” value was -0.164.
ACTAGGTC was tested, and the “PBM E-score” value was -0.0366.
For ACAAGCTA, the “PBM E-score” value was 0.0336.
For CGACGGCC, the “PBM E-score” value was -0.0375.
With ACGAGCCG the “PBM E-score” value was -0.0182.
With CCACCATC the “PBM E-score” value was -0.238.
AAACTCAG was tested, and the “PBM E-score” value was 0.0292.
For CGCCCGAA, the “PBM E-score” value was -0.0199.
In the case of ATTCCATA, the “PBM E-score” value is reported as 0.101.
In the case of AAAACACA, the “PBM E-score” value is reported as 0.109.
With AAAAAAAG the “PBM E-score” value was 0.153.
For TGGGCTAA, the “PBM E-score” value was 0.0114.
For AACGGTCG, the “PBM E-score” value was 0.105.
CCTCGGCG was tested, and the “PBM E-score” value was 0.0248.
In the case of AGGAGCCC, the “PBM E-score” value is reported as -0.164.
In the case of AAGTCGAC, the “PBM E-score” value is reported as 0.189.
For CTTCAACA, the “PBM E-score” value was 0.166.
In the case of GATGAAAA, the “PBM E-score” value is reported as 0.111.
In the case of AGCAATTC, the “PBM E-score” value is reported as 0.134.
For AGGGCGCG, the “PBM E-score” value was -0.195.
With AAATGCTC the “PBM E-score” value was 0.11.
With CTTCTTAA the “PBM E-score” value was 0.217.
CCTCAGTC was tested, and the “PBM E-score” value was -0.155.
TAGCCCTA was tested, and the “PBM E-score” value was -0.125.
With AAGATCAG the “PBM E-score” value was -0.158.
For ACTCGGTA, the “PBM E-score” value was 0.0865.
For CTCTGATA, the “PBM E-score” value was -0.00147.
CGCGCAGC was tested, and the “PBM E-score” value was -0.194.
CCTATTCG was tested, and the “PBM E-score” value was -0.126.
AATCATAC was tested, and the “PBM E-score” value was 0.168.
With AACACGCT the “PBM E-score” value was 0.147.
For ACCGTCTA, the “PBM E-score” value was -0.0863.
AAAGTCGA was tested, and the “PBM E-score” value was 0.0242.
GAGCACGC was tested, and the “PBM E-score” value was -0.299.
With CTTTTCTC the “PBM E-score” value was 0.0296.
For ACTCTAGC, the “PBM E-score” value was -0.119.
In the case of CTGTGTCC, the “PBM E-score” value is reported as -0.0508.
With CGACTATC the “PBM E-score” value was -0.135.
For ATAGAAAT, the “PBM E-score” value was 0.226.
With ATCCCCAA the “PBM E-score” value was 0.0394.
With CCTGGTCC the “PBM E-score” value was -0.108.
In the case of TAATGAGA, the “PBM E-score” value is reported as 0.164.
